This data set can be described thus: Organic thin-film transistor (OTFT) field effect mobility of TTPO thin film. As to conditions: OTFT prepared from TTPO. On the procedure: Drain current versus drain-source voltage are shown for several gate voltages. This device has a field-effect hole mobility of 1.27×10^−6 cm^2 V^−1 s^−1 at 75° C. and 8.05×10^−6 cm^2 V^−1 s^−1 at 100° C.
FET Studies of Thin-Films. […] (see FIG. 5 for drain-source current versus drain-source voltage behavior as a function of gate voltage).

Turning to `O=C1c2cc3ccccc3c3c2C2=S(S3)Sc3c2c1cc1ccccc31` [TTPO, 5,6,7-Trithiapentacene-13-one], the field effect mobility (at 75° C.) is reported as 1.27×10^−6 cm^2 V^−1 s^−1 and the field effect mobility (at 100° C.) is listed as 8.05×10^−6 cm^2 V^−1 s^−1.

For the origin of these results see patent US8389744B1, “TTPO (5 6,7-trithiapentacene-13-one) and its derivatives: a new class of thermally stable, photooxidatively resistant organic semiconductors” (University of New Hampshire, priority 2011, dated 2013).
